The text below walks through data of US7053047B2 (Purzer Pharmaceutical Co., Ltd., priority 2002, dated 2006).

A short description of the data set: general procedure: solution-phase peptide synthesis; DCC/HOBt. The following applies: for step yield: late stage modification step; for cyclisation yield: cyclisation step.

In turn, H-Gly-Arg-Pro-Ala-LysOH (GRPAK; GP6A) displayed a step yield of 78%.

Consider H-Lys-Arg-Pro-Ala-LysOH (KRPAK; KP6A), for which the step yield is 82%.

Turning to H-Ala-Arg-Pro-Ala-LysOH (ARPAK), the step yield stood at 80%.

In turn, cyclo(ARPAK) returned a step yield of 53%.

With cyclo(GRPAK), the step yield turned out to be 64%.

cyclo(KRPAK) displayed a step yield of 60%.

H-Gln-Arg-Pro-Ala-LysOH gave a step yield of 80%.

Take Cyclo[Ala-Arg(Tos)-Pro-Ala-Lys(Z′)]: the cyclisation yield is, setting by setting: (run 1) 5%; (run 2) 18%; (run 3) 9%.

As for Cyclo[Gly-Arg(Tos)-Pro-Ala-Lys(Z′)], the cyclisation yield reads like this: (run 1) 31%; (run 2) 29%.
